Experimental data reported in US12696902B2, “Pesticidal pyrazole and triazole derivatives” (priority 2019, dated 2026).
Some results were stated once for a whole list of compounds, not compound by compound.

Tests used:
Format in all cases: in vivo
[1] = tested on: Yellow Fever Mosquito (Aedes aegypti); settings: 800 ppm; freshly hatched A. aegypti larvae; larval mortality visually assessed after 2 days
Method: For evaluating control of yellow fever mosquito (Aedes aegypti) the test unit consisted of 96-well-microtiter plates containing 200 μl of tap water per well and 5-15 freshly hatched A. aegypti larvae.
The active compounds or mixtures were formulated using a solution containing 75% (v/v) water and 25% (v/v) DMSO. Different concentrations of formulated compounds or mixtures were sprayed onto the insect diet at 2.5 μl, using a custom built micro atomizer, at two replications. For experimental mixtures in these tests identical volumes of both mixing partners at the desired concentrations respectively, were mixed together.
After application, microtiter plates were incubated at 28±1° C., 80±15% RH for 2 days. Larval mortality was then visually assessed.

[2] = tested on: Diamond Back Moth (Plutella xylostella); assay: Action on diamond back moth, cabbage leaf dip; settings: 500 ppm; 3rd instar larvae on dipped cabbage leaves; 72 hours after treatment
Method: The active compound is dissolved at the desired concentration in a mixture of 1:1 (v/v) distilled water:acetone. Surfactant (Kinetic® HV) is added at a rate of 0.01% (v/v). The test solution is prepared at the day of use.
Leaves of cabbage were dipped in test solution and air-dried. Treated leaves were placed in petri dishes lined with moist filter paper and inoculated with ten 3rd instar larvae. Mortality was recorded 72 hours after treatment. Feeding damages were also recorded using a scale of 0-100%.

[3] = tested on: Boll Weevil (Anthonomus grandis); assay: Action on boll weevil, egg and larval mortality on insect diet in microtiter plates; settings: 800 ppm; A. grandis eggs on insect diet; egg and larval mortality after 5 days
Method: For evaluating control of boll weevil (Anthonomus grandis) the test unit consisted of 96-well-microtiter plates containing an insect diet and 5-10 A. grandis eggs.
The compounds were formulated using a solution containing 75% (v/v) water and 25% (v/v) DMSO. Different concentrations of formulated compounds were sprayed onto the insect diet at 5 μl, using a custom built micro atomizer, at two replications.
After application, microtiter plates were incubated at about 25+1° C. and about 75+5% relative humidity for 5 days. Egg and larval mortality were then visually assessed.

[4] = tested on: Tobacco Budworm (Heliothis virescens); assay: Action on tobacco budworm, egg and larval mortality on insect diet in microtiter plates; settings: 800 ppm; H. virescens eggs on insect diet; egg and larval mortality after 5 days
Method: For evaluating control of tobacco budworm (Heliothis virescens) the test unit consisted of 96-well-microtiter plates containing an insect diet and 15-25 H. virescens eggs.
The compounds were formulated using a solution containing 75% v/v water and 25% v/v DMSO. Different concentrations of formulated compounds were sprayed onto the insect diet at 10 μl, using a custom built micro atomizer, at two replications.
After application, microtiter plates were incubated at about 28+1° C. and about 80+5% relative humidity for 5 days. Egg and larval mortality were then visually assessed.

[5] = tested on: Southern Armyworm (Spodoptera eridania), 2nd Instar Larvae; assay: Action on southern armyworm 2nd instar larvae on sprayed lima bean plants; settings: 300 ppm, 4 days after treatment
Method: The active compounds were formulated by a Tecan liquid handler in 100% cyclohexanone as a 10,000 ppm solution supplied in tubes. The 10,000 ppm solution was serially diluted in 100% cyclohexanone to make interim solutions. These served as stock solutions for which final dilutions were made by the Tecan in 50% acetone:50% water (v/v) into 10 or 20 ml glass vials. A nonionic surfactant (Kinetic®) was included in the solution at a volume of 0.01% (v/v). The vials were then inserted into an automated electrostatic sprayer equipped with an atomizing nozzle for application to plants/insects.
Lima bean plants (variety Sieva) were grown 2 plants to a pot and selected for treatment at the 1st true leaf stage. Test solutions were sprayed onto the foliage by an automated electrostatic plant sprayer equipped with an atomizing spray nozzle. The plants were dried in the sprayer fume hood and then removed from the sprayer. Each pot was placed into perforated plastic bags with a zip closure. About 10 to 11 armyworm larvae were placed into the bag and the bags zipped closed. Test plants were maintained in a growth room at about 25° C. and about 20-40% relative humidity for 4 days, avoiding direct exposure to fluorescent light (24 hour photoperiod) to prevent trapping of heat inside the bags. Mortality and reduced feeding were assessed 4 days after treatment, compared to untreated control plants.

[6] = tested on: Orchid Thrips (Dichromothrips corbetti); assay: Action on orchid thrips, floral-immersion technique; settings: 500 ppm, adult thrips, 72 hours after treatment
Method: Dichromothrips corbetti adults used for bioassay were obtained from a colony maintained continuously under laboratory conditions. For testing purposes, the test compound is diluted in a 1:1 mixture of acetone:water (vol:vol), plus Kinetic® HV at a rate of 0.01% v/v.
Thrips potency of each compound was evaluated by using a floral-immersion technique. All petals of individual, intact orchid flowers were dipped into treatment solution and allowed to drying Petri dishes. Treated petals were placed into individual re-sealable plastic along with about 20 adult thrips. All test arenas were held under continuous light and a temperature of about 28° C. for duration of the assay. After 3 days, the numbers of live thrips were counted on each petal. The percent mortality was recorded 72 hours after treatment.

Molecule | mortality in comparison with untreated controls [1] | mortality in comparison with untreated controls [2] | mortality in comparison with untreated controls [3] | mortality in comparison with untreated controls [4] | mortality in comparison with untreated controls [5] | mortality in comparison with untreated controls [6]
Cc1nn(-c2ccc(/C=N/NC(=O)Nc3ccccc3C(C)C)cc2)c(C)c1NC(=O)c1ccc(OC(F)(F)F)cc1 [Compound C-46] | at least 50% | at least 75% | at least 75% | at least 75% |  | 
Cc1nn(-c2ccc(/C=N/N3C(=O)CS/C3=N\c3ccccc3C(C)C)cc2)cc1CNc1ccc(OC(F)(F)F)cc1 [Compound C-42] |  | at least 75% | at least 75% | at least 75% |  | 
Cc1nn(-c2ccc(/C=N/N3C(=O)CS/C3=N\c3ccccc3C(C)C)cc2)cc1NCc1ccc(OC(F)(F)F)cc1 [Compound C-38] |  | at least 75% | at least 75% |  |  | 
Cc1nn(-c2ccc(/C=N/NC(=O)Nc3ccccc3C(C)C)cc2)cc1NCc1ccc(OC(F)(F)F)cc1 [Compound C-36] | at least 50% | at least 75% | at least 75% | at least 75% |  | 
Cc1nn(-c2ccc(/C=N/N3C(=O)CS/C3=N\c3ccccc3C(C)C)cc2)cc1N=C(N)c1ccc(OC(F)(F)F)cc1 [Compound C-51] | at least 50% | at least 75% | at least 75% | at least 75% | at least 75% | 
CCc1nn(-c2ccc(/C=N/N=C3\SCC(=O)N3c3ccccc3C(C)C)cc2)cc1NC(=O)c1ccc(OC(F)(F)F)cc1 [Compound C-58] | at least 50% | at least 75% | at least 75% | at least 75% |  | at least 75%
Cc1nn(-c2ccc(C=NN=C3SCC(=O)N3c3ccccc3C(C)C)cc2)cc1NC(=O)c1cc(Cl)cc(Cl)c1 [Compound C-108] |  | at least 75% |  | at least 75% | at least 75% | at least 75%
Cc1c(NC(=O)c2ccc(OC(F)(F)F)cc2)cnn1-c1ccc(/C=N/NC(=S)Nc2ccccc2C(C)C)cc1 [Compound C-30] |  | at least 75% | at least 75% | at least 75% |  | 
Cc1nn(-c2ccc(/C=N/N=C3\SCC(=O)N3c3ccccc3C(C)C)cc2)cc1CNc1ccc(OC(F)(F)F)cc1 [Compound C-41] | at least 50% | at least 75% | at least 75% | at least 75% | at least 75% | 
Cc1nn(-c2ccc(/C=N/NC(=S)Nc3ccccc3C(C)C)cc2)c(C)c1NC(=O)c1ccc(OC(F)(F)F)cc1 [Compound C-45] |  | at least 75% | at least 75% | at least 75% | at least 75% | at least 75%
Cc1nn(-c2ccc(C=NNC(=S)Nc3ccccc3C(C)C)cc2)cc1N(C)C(=O)c1ccc(OC(F)(F)F)cc1 [Compound C-115] |  | at least 75% | at least 75% | at least 75% | at least 75% | at least 75%
Cc1nn(-c2ccc(/C=N/NC(=O)Nc3ccccc3C(C)C)cc2)cc1CNc1ccc(OC(F)(F)F)cc1 [Compound C-40] |  | at least 75% |  | at least 75% |  | 
Cc1nn(-c2ccc(/C=N/NC(=O)Nc3ccccc3C(C)C)cc2)cc1NC(=O)c1ccc(OC(F)(F)F)cc1 [Compound C-60] | at least 50% | at least 75% | at least 75% | at least 75% |  | 
Cc1nn(-c2ccc(/C=N/N=C3\SCC(=O)N3c3ccccc3C(C)C)cc2)cc1NC(=O)c1cccc(C(F)F)c1 [Compound C-67] | at least 50% |  | at least 75% | at least 75% | at least 75% | 
Cc1nn(-c2ccc(/C=N/N=C3\SCC(=O)N3c3ccccc3C(C)C)cc2)cc1N=C(N)c1ccc(OC(F)(F)F)cc1 [Compound C-54] | at least 50% | at least 75% | at least 75% | at least 75% | at least 75% | 
Cc1nn(-c2ccc(/C=N/N=C3\SCC(=O)N3c3ccccc3C(C)C)cc2)cc1NC(=O)c1cccc(OC(F)F)c1 [Compound C-72] | at least 50% |  | at least 75% | at least 75% | at least 75% | 
Cc1nn(-c2ccc(C=NN=C3SCC(=O)N3c3ccccc3C(C)C)cc2)cc1N(C)C(=O)c1ccc(OC(F)(F)F)cc1 [Compound C-117] | at least 50% |  | at least 75% | at least 75% | at least 75% | 
Cc1nn(-c2ccc(/C=N/N=C3\SCC(=O)N3c3ccccc3C(C)C)cc2)cc1NC(=O)c1ccc(OC(F)F)cc1 [Compound C-88] | at least 50% |  | at least 75% | at least 75% | at least 75% | 
1-[4-[(E)-[(2-isopropylphenyl)carbamothioylhydrazono]methyl]phenyl]-3-methyl-N-[4-(trifluoromethoxy) phenyl]pyrazole-4-carboxamide [Compound C-18] | at least 50% | at least 75% |  | at least 75% | at least 75% | 
Cc1nn(-c2ccc(/C=N/N=C3\SCC(=O)N3c3ccccc3C(C)C)cc2)cc1NCc1ccc(OC(F)(F)F)cc1 [Compound C-37] |  | at least 75% | at least 75% | at least 75% | at least 75% | 
